{
  "source": "PubChem BioAssay AID720535",
  "about": "(National Center for Advancing Translational Sciences (NCATS), 2013)",
  "note": "Out of some 1,600 compounds screened, about 420 (26%) were called active. This list was built around the results that the source calls inconclusive (neither active nor inactive); the mix of calls is not that of the screen. Calls come from the whole dose curve; as a rule, active = well fitted inhibition curve with a large enough effect; inconclusive = small, poorly fitted or top-dose-only effect; inactive = flat fitted curve, though single readings scatter. Potencies of inconclusive entries are doubtful fits and often do not repeat. Potency is the fitted concentration of half-maximal effect.",
  "data": [
    {"test": "qHTS for Inhibitors of TGF-b: Cytotox Counterscreen for Cherry Picks; note: nearly all actives have a fitted effect of over 70% in size", "conditions": "HepG2 CAGA-GFP viability, ATP luminescence, 18 h, cells stimulated with TGF-beta, 500 pg/mL; activity, negative = cytotoxicity: at 46.1 µM (top of the series)", "how_it_was_run": "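Toxicity towards HepG2 CAGA-GFP cells is assessed with CellTiter-Glo luminescence following an 18 h, 37 °C treatment with compound in the presence of 500 pg/mL TGF-beta.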", "values": [
      {"smiles": "CC[C@H]1CN2CCc3cc(OC)c(OC)cc3[C@@H]2C[C@@H]1C[C@H]1NCCc2cc(OC)c(OC)cc21", "Potency": "active: 3.66 µM"},
      {"smiles": "CCCCN(C(=O)c1cccc2c(=O)c(C)c(-c3ccccc3)oc12)c1ccccc1", "Potency": "inconclusive: 18.4 µM [inhibitor, single point]"},
      {"smiles": "CCC1=C(CC2NCCc3ccccc32)CC2c3cc(OC)c(OC)cc3CCN2C1", "note": "(stereo not given)", "Potency": "inconclusive: 4.11 µM [inhibitor, full curve]"},
      {"smiles": "Fc1ccc(CN2CCN(C(=S)NCCc3ccccc3)CC2)c(Cl)c1", "activity, negative = cytotoxicity": "inactive: -29.9%"},
      {"smiles": "NNC(=O)c1[nH]c2ccc([N+](=O)[O-])cc2c1-c1ccccc1", "activity, negative = cytotoxicity": "inactive: -19.4%"},
      {"smiles": "CCc1nc2ccc(C(=O)NCc3cccs3)cn2c1N(CC)Cc1cccc(Br)c1", "Potency": "inconclusive: 25.9 µM [inhibitor, single point]"},
      {"smiles": "COc1cc(OC)c(OC)cc1CNc1cc(C)ccc1OC", "activity, negative = cytotoxicity": "inactive: -14.1%"},
      {"smiles": "COc1cccc(NC(=O)Nc2nc(SC(C)(C)C)ns2)c1", "Potency": "inconclusive: 23.1 µM [inhibitor, single point]"},
      {"smiles": "Cn1cc([N+](=O)[O-])c(C(=O)Nc2ccc3nc(-c4ccccc4)[nH]c3c2)n1", "Potency": "inconclusive: 20.6 µM [inhibitor, single point]"},
      {"smiles": "CC(C)C[C@H](NC(=O)c1nc[nH]c1C(=O)N[C@@H](CCCCNC(=O)OC(C)(C)C)C(=O)OC(C)(C)C)C(=O)OC(C)(C)C", "activity, negative = cytotoxicity": "inactive: -19.9%"},
      {"smiles": "Cc1cc(Nc2cccc([N+](=O)[O-])c2)n2c(nc3ccccc32)c1C#N", "Potency": "inconclusive: 1.84 µM [inhibitor, full curve]"},
      {"smiles": "N#CCc1ccc(NC(=O)/C=C/c2ccc([N+](=O)[O-])o2)cc1", "Potency": "active: 5.8 µM"},
      {"smiles": "CCn1c(/C=C/c2cc(Br)ccc2O)nc2ccccc2c1=O", "Potency": "inconclusive: 20.6 µM [inhibitor, single point]"},
      {"smiles": "O=C(Nc1nc2ccc(F)cc2s1)C1CCN(S(=O)(=O)c2cc([N+](=O)[O-])ccc2Cl)CC1", "Potency": "inconclusive: 29.1 µM [inhibitor, single point]"},
      {"smiles": "O=C1C(Cl)=C(NCc2cccnc2)C(=O)c2ccccc21", "Potency": "active: 6.51 µM"},
      {"smiles": "Cc1nc(NCc2ccco2)c2c(C)c(C)sc2n1", "Potency": "active: 5.17 µM"},
      {"smiles": "CC(C)c1ccccc1NC(=O)Cn1c(/C=C/c2ccccc2)nc2ccccc21", "Potency": "inconclusive: 29.1 µM [inhibitor, single point]"},
      {"smiles": "CCOC(=O)N(C)c1c(CC)nc2c(OCc3ccc(C(F)(F)F)cc3)cccn12", "activity, negative = cytotoxicity": "inactive: -19.2%"},
      {"smiles": "CCCCN(C(=O)Cc1ccc(S(=O)(=O)N2CCOCC2)s1)c1c(N)n(CCCC)c(=O)[nH]c1=O", "activity, negative = cytotoxicity": "inactive: 0.633%"},
      {"smiles": "Cc1ccc(S(=O)(=O)N2CCOCC2)cc1C(=O)Nc1nc(-c2ccccn2)cs1", "Potency": "inconclusive: 4.11 µM [inhibitor, single point]"}
    ]}
  ]
}
